From paper PMC13092486
No constants are given. Whether binding was seen depends on the method and setting. Binding seen in cells or lysates may run through a third protein. Some binding calls cover weakened binding; strength is not graded here.

Amino acid sequences for entries named in this document (tags omitted). A change or cut given only in a name is not applied to a line headed by its entry.
UniProt Q64446: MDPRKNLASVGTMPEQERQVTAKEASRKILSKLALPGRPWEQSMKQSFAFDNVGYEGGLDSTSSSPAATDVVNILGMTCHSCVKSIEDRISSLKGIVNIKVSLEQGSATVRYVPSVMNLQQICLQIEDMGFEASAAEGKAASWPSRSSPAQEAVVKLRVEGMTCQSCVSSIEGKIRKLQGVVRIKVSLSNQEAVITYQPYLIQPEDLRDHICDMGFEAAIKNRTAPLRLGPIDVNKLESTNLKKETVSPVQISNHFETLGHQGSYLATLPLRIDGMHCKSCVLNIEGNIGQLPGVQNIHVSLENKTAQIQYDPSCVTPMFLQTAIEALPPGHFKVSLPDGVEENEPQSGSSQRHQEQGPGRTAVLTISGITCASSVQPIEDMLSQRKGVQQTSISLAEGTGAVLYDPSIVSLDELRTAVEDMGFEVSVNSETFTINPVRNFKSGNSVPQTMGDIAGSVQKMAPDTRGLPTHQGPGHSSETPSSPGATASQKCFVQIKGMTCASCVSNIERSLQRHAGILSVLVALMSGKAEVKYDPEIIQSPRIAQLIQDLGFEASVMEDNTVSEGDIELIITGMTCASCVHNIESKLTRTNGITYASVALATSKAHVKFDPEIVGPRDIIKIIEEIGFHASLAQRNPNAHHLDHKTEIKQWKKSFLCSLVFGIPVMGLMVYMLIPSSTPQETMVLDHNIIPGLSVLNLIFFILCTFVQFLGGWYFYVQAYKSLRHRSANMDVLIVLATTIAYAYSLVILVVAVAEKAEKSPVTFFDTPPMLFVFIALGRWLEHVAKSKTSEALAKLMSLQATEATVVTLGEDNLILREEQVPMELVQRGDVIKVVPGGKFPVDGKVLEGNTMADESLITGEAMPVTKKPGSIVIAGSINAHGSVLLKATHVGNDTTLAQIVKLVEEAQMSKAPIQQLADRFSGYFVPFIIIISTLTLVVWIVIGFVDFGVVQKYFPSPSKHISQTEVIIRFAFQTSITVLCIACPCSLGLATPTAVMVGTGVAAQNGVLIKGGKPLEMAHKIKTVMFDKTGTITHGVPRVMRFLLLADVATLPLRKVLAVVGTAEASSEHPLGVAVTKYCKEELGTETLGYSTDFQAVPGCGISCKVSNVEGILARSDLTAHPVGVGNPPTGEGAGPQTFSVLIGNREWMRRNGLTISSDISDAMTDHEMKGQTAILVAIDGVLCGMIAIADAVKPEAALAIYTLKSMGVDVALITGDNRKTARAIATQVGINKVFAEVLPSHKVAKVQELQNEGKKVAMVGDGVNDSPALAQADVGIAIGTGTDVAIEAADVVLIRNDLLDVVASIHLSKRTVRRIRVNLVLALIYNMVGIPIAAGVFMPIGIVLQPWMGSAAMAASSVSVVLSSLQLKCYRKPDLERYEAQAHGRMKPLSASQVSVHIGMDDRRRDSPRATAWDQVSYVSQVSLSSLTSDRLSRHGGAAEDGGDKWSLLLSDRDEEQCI

Biological target: transmembrane P1B ATPase (ATP7B) (mouse (endogenous in BV2)) (UniProt Q64446)
Assay: co-IP; lysate of BV2 microglia cells treated with Aβ1-42; ATOX1 and ATP7B antibodies from Santacruz (sc-100557, sc-373963); which protein was precipitated not given

B1: Antioxidant protein 1 (ATOX1) (protein, UniProt O08997 1-68)
chain: MPKHEFSVDMTCEGCAEAVSRVLNKLGGVEFNIDLPNKKVCIDSEHSSDTLLATLNKTGKAVSYLGPK
B1 was tested, and the binding was “binds”.
